In patent US20030049255A1 (published 2003):
No constants are given. Whether binding was seen depends on the method and setting. Some results given as binding are weak or reduced against the parent protein; the word gives no strength. Where a sequence is shown, tags or fusion partners need not be part of it.

Protein sequences, listed by entry. Tags and fused reporters are not part of them. Residues count along the entry.
UniProt P18510, residues 26-177: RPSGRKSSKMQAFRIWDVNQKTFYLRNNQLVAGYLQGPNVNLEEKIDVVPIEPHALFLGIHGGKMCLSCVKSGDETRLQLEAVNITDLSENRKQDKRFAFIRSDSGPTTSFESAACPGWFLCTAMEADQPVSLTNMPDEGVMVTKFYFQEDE
UniProt Q866R8, residues 26-177: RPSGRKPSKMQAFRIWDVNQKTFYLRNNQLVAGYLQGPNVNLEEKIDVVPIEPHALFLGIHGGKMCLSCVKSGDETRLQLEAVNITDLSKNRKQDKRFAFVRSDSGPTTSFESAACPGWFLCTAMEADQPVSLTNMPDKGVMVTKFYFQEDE

What was measured:
[1] = target: human IL-1 receptor antagonist (IL-1ra) (human) (UniProt P18510); experiment: SPR, BIACORE 3000, receptor:Fc captured on anti-human IgG Fc, ligand in flow
[2] = target: cynomolgus IL-1ra (cynomolgus macaque) (UniProt Q866R8); experiment: SPR, BIACORE 3000, receptor:Fc captured, ligand in flow

binding [1]: binds
binding [2]: binds
B1: recombinant human type II IL-1R:Fc (Fc fusion)
chain: FTLQPAAHTGAARSCRFRGRHYKREFRLEGEPVALRCPQVPYWLWASVSPRINLTWHKNDSARTVPGEEETRMWAQDGALWLLPALQEDSGTYVCTTRNASYCDKMSIELRVFENTDAFLPFISYPQILTLSTSGVLVCPDLSEFTRDKTDVKIQWYKDSLLLDKDNEKFLSVRGTTHLLVHDVALEDAGYYRCVLTFAHEGQQYNITRSIELRIKKKKEETIPVIISPLKTISASLGSRLTIPCKVFLGTGTPLTTMLWWTANDTHIESAYPGGRVTEGPRQEYSENNENYIEVPLIFDPVTREDLHMDFKCVVHNTLSFQTLRTTVKE
notes: also called human IL-1RII:Fc; soluble recombinant human type II IL 1R:Fc; not shown: Fc portion of human IgG
